The values that follow come from patent US20210137953A1, “Inhibitors of Mcl-1 and Akt Binding, Pharmaceutical Compositions, and Uses in Treating Cancer” (Emory University, priority 2019, published 2021).

Chains of the proteins cited; added tags and fusions are not shown. Lines headed by an entry give the natural chain unless they say otherwise; changes in a name come on top.
UniProt Q07820: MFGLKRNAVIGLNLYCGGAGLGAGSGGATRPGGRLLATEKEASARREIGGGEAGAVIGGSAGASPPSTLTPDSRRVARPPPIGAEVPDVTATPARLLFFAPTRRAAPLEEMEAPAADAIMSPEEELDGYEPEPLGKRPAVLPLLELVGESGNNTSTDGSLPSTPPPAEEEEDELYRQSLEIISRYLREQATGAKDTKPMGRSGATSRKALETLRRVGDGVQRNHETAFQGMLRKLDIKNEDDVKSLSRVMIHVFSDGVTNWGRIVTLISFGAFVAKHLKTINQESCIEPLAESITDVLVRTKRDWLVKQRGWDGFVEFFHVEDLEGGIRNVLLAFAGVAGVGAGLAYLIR
UniProt P31749: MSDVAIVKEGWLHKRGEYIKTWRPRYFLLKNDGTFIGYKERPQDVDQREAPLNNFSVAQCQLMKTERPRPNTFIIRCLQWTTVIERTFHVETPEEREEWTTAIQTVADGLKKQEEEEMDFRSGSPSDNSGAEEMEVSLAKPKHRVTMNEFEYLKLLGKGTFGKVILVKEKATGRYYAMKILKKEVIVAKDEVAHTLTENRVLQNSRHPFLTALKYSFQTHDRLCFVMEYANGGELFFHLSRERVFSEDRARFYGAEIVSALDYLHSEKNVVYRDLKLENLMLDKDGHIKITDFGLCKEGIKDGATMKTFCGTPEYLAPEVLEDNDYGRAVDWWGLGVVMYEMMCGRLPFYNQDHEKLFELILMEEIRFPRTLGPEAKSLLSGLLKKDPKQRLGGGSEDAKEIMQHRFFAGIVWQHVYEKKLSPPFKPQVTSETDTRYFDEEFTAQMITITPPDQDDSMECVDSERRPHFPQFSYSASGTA

For the experiment, the target named is Flag-tagged WT Mcl-1 (UniProt Q07820). The experiment in a line: GST pull-down after co-transfection with Flag-tagged WT Mcl-1.

These are yes or no findings as the source states them, for the method shown. Binding seen in cells or lysates may run through a third protein. Some entries that bind do so weakly or less than the wild type.

Turning to “GST-tagged Akt 8 (WT) (from UniProt P31749 1-480) (enzyme)”, the binding entry was “binds”.

As for “GST-tagged Akt deletion mutant 1 (GST-PH domain) (from UniProt P31749 4-111)”, the binding result was “binds”.
